# Data as given in PubChem BioAssay AID540276 (National Center for Advancing Translational Sciences (NCATS), 2011).
# In all, about 300,000 compounds went through this assay and about 5,400 (1.8%) were called active. Inconclusive results, whose numbers are uncertain, are shown with a selection of clear calls. The call rests on the fitted dose curve; tested in HEK293 cells. Where the call is inconclusive, the potency comes from a doubtful curve fit.
# Experiment: qHTS for inhibitors of binding or entry into cells for Marburg Virus
# Conditions: Marburg virus pseudotyped entry inhibition, cell reporter; series mostly up to 37.8 µM
# Potency means the concentration at half of the fitted maximal effect.
row,SMILES,Potency
1,Cc1ccc(-c2nc(SCC(=O)Nc3cc(S(=O)(=O)N4CCCCC4)ccc3Cl)n[nH]2)cc1,active: 16.4 µM
2,Cc1csc(=O)n1CCC(=O)OCc1nnc(-c2ccccc2)o1,"inconclusive: 35.5 µM [activator, single point]"
3,COc1ccc(/C=N/NC(=O)c2cccnc2)cc1CN1CCc2cc(OC)c(OC)cc2C1C (stereo not drawn),inactive
4,COc1ccc(N(C(=O)c2snc(C(N)=O)c2N)C(C(=O)NC2CCCC2)c2ccc3ncccc3c2)cc1 (stereo not drawn),"inconclusive: 22.4 µM [inhibitor, single point]"
5,CCCCCN=Cc1c(C)[nH]n(-c2nc3ccccc3s2)c1=O,"inconclusive: 6.51 µM [inhibitor, full curve]"
6,Cc1sc2ncnc(OCc3nnc(-c4cccs4)o3)c2c1C,inactive
7,O=C(Oc1ccccc1/C=C\C(=O)c1cc2ccccc2o1)c1ccccc1,"inconclusive: 2.24 µM [inhibitor, partial curve, poor fit]"
8,Cc1cc(C)c(NC(=S)N(CCCN2CCN(C)CC2)Cc2cccs2)c(C)c1,"inconclusive: 10 µM [inhibitor, partial curve, poor fit]"
9,Cc1c(C(=O)Nc2ccc(OC(F)(F)F)cc2)sc2nc3n(c(=O)c12)CCC3,"inconclusive: 10 µM [inhibitor, partial curve, poor fit]"
10,COC(=O)c1sc2nc(C)cc(C)c2c1N,"inconclusive: 14.1 µM [activator, single point]"
11,CCOc1cc(C2NC(=O)NC(C)=C2C(=O)OCc2ccccc2)ccc1O (stereo not drawn),"inconclusive: 29.1 µM [inhibitor, single point]"
12,COc1cc(-c2nnc(SCC(=O)c3cc(C)n(CC4CCCO4)c3C)o2)cc(OC)c1OC (stereo not drawn),"inconclusive: 29.1 µM [inhibitor, single point]"
13,O=C(c1ccc(S(=O)(=O)N2CCCC2)cc1)N1CCCCC1,inactive
14,COc1ccc(C(O)(C(=O)NNc2ccc(C)cc2)c2cccs2)cc1 (stereo not drawn),"inconclusive: 23.1 µM [inhibitor, single point]"
15,Cn1c(=O)oc2cc(S(=O)(=O)NCCC(=O)N3CC=C(c4ccccc4)CC3)ccc21,"inconclusive: 9.2 µM [inhibitor, partial curve, poor fit]"
16,Cc1ccc(SC(C)c2nc(-c3cccnc3)no2)cc1 (stereo not drawn),inactive
17,CCCS(=O)(=O)c1nc(S(=O)(=O)c2ccc(C)cc2)c(NC)s1,inactive
18,Cc1ccc(NC(=O)Cc2coc3ccc(C(C)C)cc23)cc1Cl,"inconclusive: 3.16 µM [inhibitor, full curve, poor fit]"
19,CNC(=O)Oc1cc2c(cc1C(C)(C)C)CCC2,"inconclusive: 5.62 µM [inhibitor, single point]"
20,COC(=O)c1ccccc1S(=O)(=O)N1CCC(C(=O)OCc2ccc([N+](=O)[O-])cc2)CC1,"inconclusive: 35.5 µM [activator, single point]"
21,O=[N+]([O-])c1ccccc1OCCOc1ccccc1[N+](=O)[O-],"inconclusive: 6.31 µM [activator, single point]"
22,COc1cccc(CC2(CO)CCCN(Cc3cc4ccccc4[nH]3)C2)c1 (stereo not drawn),active: 3.98 µM

# In another format: 2 of the compounds above
row	SMILES	Potency
15	Cn1c(=O)oc2cc(S(=O)(=O)NCCC(=O)N3CC=C(c4ccccc4)CC3)ccc21	inconclusive: 9.2 µM [inhibitor, partial curve, poor fit]
16	Cc1ccc(SC(C)c2nc(-c3cccnc3)no2)cc1 (stereo not drawn)	inactive

# (listing goes on)

row,SMILES,Potency
1,CO/N=C/NC(=O)c1ccc([N+](=O)[O-])c(CS(=O)(=O)c2ccc(Cl)cc2)c1,"inconclusive: 0.282 µM [activator, partial curve, poor fit]"
2,COc1ccc2nc(Nc3nc(-c4cc5ccccc5oc4=O)cs3)sc2c1,"inconclusive: 5.62 µM [inhibitor, single point]"
3,COc1ccccc1/C=C/C(=O)OCC(=O)c1c(N)n(C)c(=O)n(C)c1=O,active: 0.891 µM
4,NC(=O)C1CC(=O)N(c2ccc(OCC(=O)NCc3ccccc3)cc2)C1 (stereo not drawn),"inconclusive: 22.4 µM [inhibitor, single point]"
5,CCCOc1ccc(-c2nc(C#N)c(N3CCN(C)CC3)o2)cc1,inactive
6,CC(=O)Nc1cccc(NC(=O)C2CC(=O)N(CCc3ccc(F)cc3)C2)c1 (stereo not drawn),"inconclusive: 5.62 µM [inhibitor, partial curve, poor fit]"
7,Cn1nnnc1SCC(=O)c1ccc(Br)s1,inactive
8,c1ccc2c(c1)OCC(c1csc3ncnc(N4CCCCC4)c13)O2 (stereo not drawn),"inconclusive: 35.5 µM [inhibitor, single point]"
9,Cc1c(Cl)c([N+](=O)[O-])nn1CC(=O)Nc1ccc2c(c1)OCO2,"inconclusive: 0.651 µM [inhibitor, single point]"
10,CCN1C(=O)/C(=C\c2cn(CCC#N)nc2-c2ccc(F)cc2)SC1=S,"inconclusive: 32.6 µM [inhibitor, single point]"
11,CN=C(SCc1ccccc1)c1c(O)n(C)c(=O)n(C)c1=O,"inconclusive: 1.83 µM [activator, full curve, poor fit]"
12,O=[N+]([O-])c1cccc(/C=N/Nc2cc(Cl)nc(-c3ccccc3)n2)c1,inactive
13,N=c1c2c(-c3ccccc3)c(-c3ccccc3)n(Cc3ccco3)c2ncn1CCO,"inconclusive: 15.8 µM [inhibitor, partial curve, poor fit]"
14,C1=CC2CC1CC2CNCc1ccco1 (stereo not drawn),"inconclusive: 11.2 µM [activator, partial curve, poor fit]"
15,CSCCC(C(=O)N1C[C@]2(C)C[C@H]1CC(C)(C)C2)N1C(=O)c2ccccc2C1=O (stereo partly drawn),"inconclusive: 2.06 µM [inhibitor, partial curve, poor fit]"
16,CC(=O)Nc1ccc(S(=O)(=O)Nc2cc3c(cc2C(C)=O)OCO3)cc1,inactive
17,COc1cccc(N2CCN(S(=O)(=O)c3ccc4ccccc4c3)CC2)c1,"inconclusive: 14.1 µM [inhibitor, single point]"
18,COc1cc(C2C(C#N)=C(N)Oc3cc(N)ccc32)cc(OC)c1OC (stereo not drawn),active: 5.62 µM
19,Cc1noc(C)c1CSCC(=O)OCC(=O)NC1CCCCC1,inactive
20,Cc1ccc(Cl)cc1N1CCN(S(=O)(=O)c2ccc3c(c2)CCN3C(=O)C2CCC2)CC1,inactive
21,Cc1cc(OC(=O)c2ccc(Cl)cc2Cl)nc(C)n1,inactive
